The list is a part of this screen's results and no random one: it is rich in T/C values a quarter to a half above the control, in often repeated tests (any T/C) and in doses without a T/C. Further doses and runs are listed elsewhere. T/C: endpoint of the treated group in % of that of the vehicle group. Some entries give survivors of the animals treated and no T/C: the source holds a T/C of zero for them, seemingly a mark for toxic or unscored doses. Some survivor counts are full or nearly so, which does not show that the dose was tolerated: survival well below the control is almost never listed, so the zero probably covers shortened survival too. Survivors were counted at the toxicity check, usually on the fifth day, unless a day is given; later deaths do not show. Schedule codes are those of the source, read here as Q, the interval in days (D) or hours (H), X, the number of doses. Some entries hold several experiments; their values stand side by side, smallest first. Some molecules as drawn cover several salts, stereoisomers or complexes of the source; a dose is that of the sample tested. Where survival is the endpoint, this PubChem deposit counts one and a half times the control or more as active, and values a quarter to a half above the control carry no call in these data; other NCI protocols may use other cut-offs.
Tested on: P388 leukemia ip, CD2F1 mice, survival T/C
Assay: NCI In Vivo Anticancer Drug Screen. Data for tumor model P388 Leukemia (intraperitoneal) in CD2F1 (CDF1) mice
Conditions: T/C endpoint: median survival time, higher T/C = longer survival
[1] = dose: 200.0 mg/kg/injection, schedule: Q04DX003 (ip), vehicle: saline with Tween-80
[2] = dose: 400.0 mg/kg/injection, schedule: Q04DX003 (ip), vehicle: saline with Tween-80
[3] = dose: 100.0 mg/kg/injection, schedule: Q01DX009 (ip), vehicle: saline
[4] = dose: 100.0 mg/kg/injection, schedule: Q01DX009 (ip), vehicle: saline with Tween-80
[5] = dose: 50.0 mg/kg/injection, schedule: Q01DX005 (ip), vehicle: Klucel (hydroxypropylcellulose) (HPC)
[6] = dose: 60.0 mg/kg/injection, schedule: Q01DX005 (ip), vehicle: saline with Tween-80
[7] = dose: 120.0 mg/kg/injection, schedule: Q01DX005 (ip), vehicle: saline with Tween-80
[8] = dose: 240.0 mg/kg/injection, schedule: Q01DX005 (ip), vehicle: saline with Tween-80
[9] = dose: 12.5 mg/kg/injection, schedule: Q04DX003 (ip), vehicle: saline with Tween-80
[10] = dose: 100.0 mg/kg/injection, schedule: Q04DX003 (ip), vehicle: saline with Tween-80
[11] = dose: 40.0 mg/kg/injection, schedule: Q04DX002 (ip), vehicle: saline with Tween-80
[12] = dose: 200.0 mg/kg/injection, schedule: Q01DX009 (ip), vehicle: saline with Tween-80

For `NC(N)=N/N=C\c1c2ccccc2cc2ccccc12`, the T/C (dose: 1.56 mg/kg/injection, schedule: Q01DX009 (ip), vehicle: other) was 134 % of control, the T/C (dose: 3.13 mg/kg/injection, schedule: Q01DX009 (ip), vehicle: other) was 148 % of control and the T/C (dose: 6.25 mg/kg/injection, schedule: Q01DX009 (ip), vehicle: other) was 144 % of control. For the same compound, the T/C (dose: 12.5 mg/kg/injection, schedule: Q01DX009 (ip), vehicle: other) was 144 % of control and the T/C (dose: 25.0 mg/kg/injection, schedule: Q01DX009 (ip), vehicle: other) was 145 % of control.
For `CN1CCCc2cc(/C=C\c3ccnc4ccccc34)ccc21`, the T/C (dose: 100.0 mg/kg/injection, schedule: Q01DX009 (ip), vehicle: Klucel (hydroxypropylcellulose) (HPC)) was 139 % of control.
`CC(C)(c1ccccc1)c1ccc(O)cc1` was tested, and the survivor count [1] was 2 of 6 and the survivor count [2] was 2 of 6.
`CCCCOc1ccc(C(=O)SCCCN=C(N)N)cc1` was tested, and the survivor count (dose: 100.0 mg/kg/injection, schedule: Q01DX005 (ip), vehicle: saline) was 3 of 5 and the survivor count (dose: 200.0 mg/kg/injection, schedule: Q01DX005 (ip), vehicle: saline) was 2 of 5 and 3 of 5.
In the case of `O=[N+]([O-])c1cnc[nH]1`, the survivor count (dose: 400.0 mg/kg/injection, schedule: Q01DX009 (ip), vehicle: Klucel (hydroxypropylcellulose) (HPC)) is reported as 4 of 6.
`CCC1CN1P(=O)(N(CC)CC)N1CC1CC` (centres undefined) was tested, and the T/C (dose: 66.0 mg/kg/injection, schedule: Q01DX009 (ip), vehicle: saline) was 130 % of control, the T/C [3] was 140 % of control and the T/C (dose: 150.0 mg/kg/injection, schedule: Q01DX009 (ip), vehicle: saline) was 125 % of control. The survivor count (dose: 200.0 mg/kg/injection, schedule: Q01DX009 (ip), vehicle: saline) was 6 of 6.
For `O=C1CC2C=CC2C1` (centres undefined), the survivor count (dose: 50.0 mg/kg/injection, schedule: Q01DX009 (ip), vehicle: saline with Tween-80) was 6 of 6 and the survivor count [4] was 6 of 6.
With `CNC(=O)N1CC2CCC(C)(C1)OC2(C)C` (centres undefined) the survivor count [5] was 6 of 6.
In the case of `CN1CC(=O)[O][Sn]([CH3])([CH3])[O]C(=O)C1`, the survivor count (dose: 60.0 mg/kg/injection, schedule: Q01DX005 (ip), vehicle: Klucel (hydroxypropylcellulose) (HPC)) is reported as 0 of 6, the T/C [6] is reported as 128 % of control and the survivor count [6] is reported as 2 of 6. For the same compound, the survivor count [7] was 1 of 6 and the survivor count [8] was 0 of 6.
For `COCCCNP(=S)(N1CC1)N1CC1`, the T/C (dose: 6.25 mg/kg/injection, schedule: Q01DX009 (ip), vehicle: saline) was 137 % of control, the T/C (dose: 12.0 mg/kg/injection, schedule: Q04DX003 (ip), vehicle: saline) was 145 % of control and the T/C [9] was 147 % of control. The survivor count (dose: 25.0 mg/kg/injection, schedule: Q01DX009 (ip), vehicle: saline) was 6 of 6, the survivor count (dose: 50.0 mg/kg/injection, schedule: Q04DX003 (ip), vehicle: saline with Tween-80) was 6 of 6 and the survivor count [10] was 3 of 6. The survivor count [1] was 6 of 6 and the survivor count [2] was 2 of 6.
`CN(C)C1=CC(=O)c2ccccc2C12CO2` (centres undefined) was tested, and the survivor count (dose: 400.0 mg/kg/injection, schedule: Q01DX001 (ip), vehicle: saline with Tween-80) was 3 of 6.
`CCN(CC)/C([Se])=N/N=C(\C)c1ccccn1` was tested, and the survivor count (dose: 400.0 mg/kg/injection, schedule: Q04DX003 (ip), vehicle: Klucel (hydroxypropylcellulose) (HPC)) was 1 of 6.
`O=C(O)C1=CC2C=C(Cl)C=CC2OC1=O` (centres undefined) was tested, and the survivor count [8] was 0 of 6.
In the case of `CS/C(=C/c1ccc2ccccc2[n+]1C)N1CCCCC1`, the survivor count (dose: 3.12 mg/kg/injection, schedule: Q01DX005 (ip), vehicle: saline with Tween-80) is reported as 0 of 5, the survivor count (dose: 6.25 mg/kg/injection, schedule: Q01DX005 (ip), vehicle: saline with Tween-80) is reported as 0 of 6 and the survivor count (dose: 12.5 mg/kg/injection, schedule: Q01DX005 (ip), vehicle: saline with Tween-80) is reported as 0 of 6. For the same compound, the survivor count (dose: 25.0 mg/kg/injection, schedule: Q01DX005 (ip), vehicle: saline with Tween-80) was 0 of 6, the survivor count (dose: 50.0 mg/kg/injection, schedule: Q01DX005 (ip), vehicle: saline with Tween-80) was 0 of 6 and the survivor count (dose: 100.0 mg/kg/injection, schedule: Q01DX005 (ip), vehicle: saline with Tween-80) was 0 of 6. The survivor count (dose: 200.0 mg/kg/injection, schedule: Q01DX005 (ip), vehicle: saline with Tween-80) was 0 of 6.
With `CCCCc1c(O)nc2nc(-c3ccccc3)c(-c3ccccc3)nn2c1=O` the survivor count [5] was 6 of 6, the survivor count (dose: 100.0 mg/kg/injection, schedule: Q01DX005 (ip), vehicle: Klucel (hydroxypropylcellulose) (HPC)) was 6 of 6 and the survivor count (dose: 200.0 mg/kg/injection, schedule: Q01DX005 (ip), vehicle: Klucel (hydroxypropylcellulose) (HPC)) was 6 of 6.
For `[CH3][Pb]([CH3])([CH3])[Cl]`, the survivor count (dose: 0.75 mg/kg/injection, schedule: Q01DX009 (ip), vehicle: saline) was 6 of 6 and the survivor count (dose: 6.0 mg/kg/injection, schedule: Q01DX009 (ip), vehicle: saline) was 5 of 6 and 6 of 6.
For `O=C1c2cccc3cc([N+](=O)[O-])cc(c23)C(=O)N1CCNCCNCCNCCN1C(=O)c2cccc3cc([N+](=O)[O-])cc(c23)C1=O`, the T/C (dose: 10.0 mg/kg/injection, schedule: Q04DX002 (ip), vehicle: saline with Tween-80) was 127 % of control, the T/C (dose: 20.0 mg/kg/injection, schedule: Q04DX002 (ip), vehicle: saline with Tween-80) was 128 and 134 % of control and the T/C [11] was 129 % of control. For the same compound, the survivor count [11] was 0 of 6, the survivor count (dose: 80.0 mg/kg/injection, schedule: Q04DX002 (ip), vehicle: saline with Tween-80) was 0 of 6 and the survivor count (dose: 89.5 mg/kg/injection, schedule: Q04DX002 (ip), vehicle: saline with Tween-80) was 0 of 6. The survivor count (dose: 179.0 mg/kg/injection, schedule: Q04DX002 (ip), vehicle: saline with Tween-80) was 0 of 6 and the survivor count (dose: 358.0 mg/kg/injection, schedule: Q04DX002 (ip), vehicle: saline with Tween-80) was 0 of 6.
`CC(C)([CH2][Sn]([CH3])([Cl])[Cl])c1ccccc1` was tested, and the survivor count [9] was 3 of 6, the T/C (dose: 12.5 mg/kg/injection, schedule: Q04DX003 (ip), vehicle: saline) was 129 % of control and the survivor count (dose: 25.0 mg/kg/injection, schedule: Q04DX003 (ip), vehicle: saline) was 3 of 6. The survivor count [10] was 2 of 6, the survivor count [1] was 0 of 6 and the survivor count [2] was 0 of 6.
For `Cc1ccc(NC(=O)N2c3ccccc3SC2c2ccco2)c(C)c1` (centres undefined), the survivor count [4] was 6 of 6 and the survivor count [12] was 6 of 6.
With `C(=Nc1ccc2ccccc2c1)Nc1ccc2ccccc2c1.[Cu+2]` the T/C (dose: 50.0 mg/kg/injection, schedule: Q01DX009 (ip), vehicle: saline) was 132 % of control, the survivor count [4] was 5 of 6 and the survivor count [3] was 2 of 6. The survivor count [12] was 5 of 6.
In the case of `CCN(CC)C(=O)NCCCCCCNC(=O)N(CC)CC`, the survivor count [7] is reported as 6 of 6 and the survivor count [8] is reported as 6 of 6.
For `COc1ccccc1C1OC2=C(Nc3ccccc3N2)C1=O` (centres undefined), the survivor count (dose: 120.0 mg/kg/injection, schedule: Q01DX005 (ip), vehicle: Klucel (hydroxypropylcellulose) (HPC)) was 6 of 6.
In the case of `CCCCCCCCCCCCCCCCc1c(C)nc(N(C)C)oc1=O`, the survivor count [6] is reported as 6 of 6 and the survivor count [7] is reported as 6 of 6.
With `O=C(c1ccccc1)c1no[n+]([O-])c1C(=O)c1ccccc1` the T/C (dose: 6.25 mg/kg/injection, schedule: Q01DX009 (ip), vehicle: Klucel (hydroxypropylcellulose) (HPC)) was 129 % of control, the T/C (dose: 12.5 mg/kg/injection, schedule: Q01DX009 (ip), vehicle: Klucel (hydroxypropylcellulose) (HPC)) was 129 % of control and the survivor count (dose: 25.0 mg/kg/injection, schedule: Q01DX009 (ip), vehicle: Klucel (hydroxypropylcellulose) (HPC)) was 0 of 6 and 3 of 6.
